Experimental findings from PMC4007472 are described below.

This test has as its target Human plasma fibronectin (Fn) (human). The test can be described thus: adherence of bacteria to coated wells (crystal violet); human plasma Fn immobilised on ELISA wells, ~10^8 washed S. aureus cells expressing FnBPA constructs, 1 h 37 °C, without or with a range of concentrations of human Fg; only the target purified. For orientation: ELISA stands for enzyme-linked immunosorbent assay.

These are yes or no findings as the source states them, for the method shown. Binding calls can cover weak binding; strength is not graded here.

B1: Intact FnBPA (with FnBRs 1–11), expressed on S. aureus (protein, UniProt P14738 37-985)
chain: ASEQKTTTVEENGNSATDNKTSETQTTATNVNHIEETQSYNATVTEQPSNATQVTTEEAPKAVQAPQTAQPANIETVKEEVVKEEAKPQVKETTQSQDNSGDQRQVDLTPKKATQNQVAETQVEVAQPRTASESKPRVTRSADVAEAKEASNAKVETGTDVTSKVTVEIGSIEGHNNTNKVEPHAGQRAVLKYKLKFENGLHQGDYFDFTLSNNVNTHGVSTARKVPEIKNGSVVMATGEVLEGGKIRYTFTNDIEDKVDVTAELEINLFIDPKTVQTNGNQTITSTLNEEQTSKELDVKYKDGIGNYYANLNGSIETFNKANNRFSHVAFIKPNNGKTTSVTVTGTLMKGSNQNGNQPKVRIFEYLGNNEDIAKSVYANTTDTSKFKEVTSNMSGNLNLQNNGSYSLNIENLDKTYVVHYDGEYLNGTDEVDFRTQMVGHPEQLYKYYYDRGYTLTWDNGLVLYSNKANGNEKNGPIIQNNKFEYKEDTIKETLTGQYDKNLVTTVEEEYDSSTLDIDYHTAIDGGGGYVDGYIETIEETDSSAIDIDYHTAVDSEAGHVGGYTESSEESNPIDFEESTHENSKHHADVVEYEEDTNPGGGQVTTESNLVEFDEESTKGIVTGAVSDHTTVEDTKEYTTESNLIELVDELPEEHGQAQGPVEEITKNNHHISHSGLGTENGHGNYDVIEEIEENSHVDIKSELGYEGGQNSGNQSFEEDTEEDKPKYEQGGNIVDIDFDSVPQIHGQNKGNQSFEEDTEKDKPKYEHGGNIIDIDFDSVPHIHGFNKHTEIIEEDTNKDKPSYQFGGHNSVDFEEDTLPKVSGQNEGQQTIEEDTTPPIVPPTPPTPEVPSEPETPTPPTPEVPSEPETPTPPTPEVPSEPETPTPPTPEVPAEPGKPVPPAKEEPKKPSKPVEQGKVVTPVIEINEKVKAVAPTKKPQSKKSELPET
Turning to B1, the binding entry was “binds”.
